PubChem BioAssay AID652259, Drosophila RNAi Screening Center – 2013
The screen tested about 22,000 reagents; shown is an unselected part of those with a known target gene and a result. Over the whole deposit, 233 (1.1%) are marked active. 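Light values are raw, unnormalised plate reads; the ratio scores behind the reporter calls were not deposited.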 Names joined by + are all predicted targets of the reagent. Not stated in the record: the amount of reagent, the time to read-out, the dose of the treatment.

Purpose: 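Knock-downs that push a Wingless-driven reporter up or down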 (primary screen)
System: Drosophila clone 8 imaginal disc epithelial cells
Reagents: long dsRNA against Drosophila genes
Challenge: pathway stimulated by co-transfected Wingless expression plasmid
Measurement: 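Firefly luciferase from a tcf-site Wingless reporter, measured alongside co-transfected Renilla luciferase that tracks transfection; pathway stimulated by a Wingless plasmid; the firefly-to-Renilla ratio is not deposited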
Reading the numbers: firefly reporter light: higher = more Wg reporter light, before normalisation; Renilla control light: higher = more transfected or surviving cells
Rule for the call: 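Strong candidates differ from their plate mean by at least two out of four per-plate statistical tests; weak candidates meet just one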
Meaning of the calls: active = candidate regulator (raises or lowers reporter); inactive = not a candidate

The first 4 entries as a preview:
{"gene knocked down": "CG33267", "dsRNA": "DRSC09120", "firefly reporter light, replicate 1": 3221, "Renilla control light, replicate 1": 1520, "outcome": "inactive"}
{"gene knocked down": "SkpC (SKP1-related C)", "dsRNA": "DRSC20375", "firefly reporter light, replicate 1": 25920, "Renilla control light, replicate 1": 14829, "outcome": "inactive"}
{"gene knocked down": "CG8097", "dsRNA": "DRSC20079", "firefly reporter light, replicate 1": 18378, "Renilla control light, replicate 1": 7589, "outcome": "inactive"}
{"gene knocked down": "spz5 (spatzle 5)", "dsRNA": "DRSC08645", "firefly reporter light, replicate 1": 13425, "Renilla control light, replicate 1": 5367, "outcome": "inactive"}

The list itself, from the start:
{"gene knocked down": "CG33267", "dsRNA": "DRSC09120", "firefly reporter light, replicate 1": 3221, "Renilla control light, replicate 1": 1520, "outcome": "inactive"}
{"gene knocked down": "SkpC (SKP1-related C)", "dsRNA": "DRSC20375", "firefly reporter light, replicate 1": 25920, "Renilla control light, replicate 1": 14829, "outcome": "inactive"}
{"gene knocked down": "CG8097", "dsRNA": "DRSC20079", "firefly reporter light, replicate 1": 18378, "Renilla control light, replicate 1": 7589, "outcome": "inactive"}
{"gene knocked down": "spz5 (spatzle 5)", "dsRNA": "DRSC08645", "firefly reporter light, replicate 1": 13425, "Renilla control light, replicate 1": 5367, "outcome": "inactive"}
{"gene knocked down": "enok (enoki mushroom)", "dsRNA": "DRSC04096", "reporter change call, replicate 1": "Wg reporter activity raised", "firefly reporter light, replicate 1": 25498, "Renilla control light, replicate 1": 4520, "outcome": "inactive"}
{"gene knocked down": "mnb (minibrain)", "dsRNA": "DRSC20058", "reporter change call, replicate 1": "Wg reporter activity raised", "firefly reporter light, replicate 1": 21442, "Renilla control light, replicate 1": 4592, "outcome": "inactive"}
{"gene knocked down": "mnb (minibrain)", "dsRNA": "DRSC20353", "firefly reporter light, replicate 1": 16156, "Renilla control light, replicate 1": 6859, "outcome": "inactive"}
{"gene knocked down": "CG15293", "dsRNA": "DRSC01919", "firefly reporter light, replicate 1": 2322, "firefly reporter light, replicate 2": 6636, "Renilla control light, replicate 1": 1200, "Renilla control light, replicate 2": 2797, "outcome": "inactive"}
{"gene knocked down": "Srrm234 (Serine-arginine repetitive matrix 2/3/4)", "dsRNA": "DRSC07955", "firefly reporter light, replicate 1": 3577, "Renilla control light, replicate 1": 1296, "outcome": "inactive"}
{"gene knocked down": "Srrm234 (Serine-arginine repetitive matrix 2/3/4)", "dsRNA": "DRSC08606", "firefly reporter light, replicate 1": 11764, "Renilla control light, replicate 1": 2806, "outcome": "inactive"}
{"gene knocked down": "CG43312", "dsRNA": "DRSC11559", "firefly reporter light, replicate 1": 2680, "Renilla control light, replicate 1": 1282, "outcome": "inactive"}
{"gene knocked down": "eya (eyes absent)", "dsRNA": "DRSC03510", "firefly reporter light, replicate 1": 13106, "Renilla control light, replicate 1": 5527, "outcome": "inactive"}
{"gene knocked down": "iav (inactive)", "dsRNA": "DRSC18363", "firefly reporter light, replicate 1": 21654, "Renilla control light, replicate 1": 7559, "outcome": "inactive"}
{"gene knocked down": "disp (dispatched)", "dsRNA": "DRSC12376", "firefly reporter light, replicate 1": 15616, "Renilla control light, replicate 1": 3120, "outcome": "inactive"}
{"gene knocked down": "Lac (Lachesin)", "dsRNA": "DRSC07452", "firefly reporter light, replicate 1": 6775, "Renilla control light, replicate 1": 2861, "outcome": "inactive"}
{"gene knocked down": "robl22E", "dsRNA": "DRSC00289", "firefly reporter light, replicate 1": 2790, "firefly reporter light, replicate 2": 8028, "Renilla control light, replicate 1": 1128, "Renilla control light, replicate 2": 2875, "outcome": "inactive"}
{"gene knocked down": "dmGlut (Dietary and metabolic glutamate transporter)", "dsRNA": "DRSC02835", "firefly reporter light, replicate 1": 9725, "Renilla control light, replicate 1": 2288, "outcome": "inactive"}
{"gene knocked down": "PolE1 (DNA polymerase epsilon subunit 1)", "dsRNA": "DRSC16112", "firefly reporter light, replicate 1": 2160, "firefly reporter light, replicate 2": 4027, "Renilla control light, replicate 1": 1082, "Renilla control light, replicate 2": 2240, "outcome": "inactive"}
{"gene knocked down": "CG13308", "dsRNA": "DRSC09979", "firefly reporter light, replicate 1": 1568, "firefly reporter light, replicate 2": 5853, "Renilla control light, replicate 1": 1497, "Renilla control light, replicate 2": 2709, "outcome": "inactive"}
{"gene knocked down": "CG10887", "dsRNA": "DRSC14277", "firefly reporter light, replicate 1": 20768, "firefly reporter light, replicate 2": 7.81e5, "Renilla control light, replicate 1": 7186, "Renilla control light, replicate 2": 3.49e5, "outcome": "inactive"}
{"gene knocked down": "CG6966", "dsRNA": "DRSC16156", "firefly reporter light, replicate 1": 9714, "Renilla control light, replicate 1": 2699, "outcome": "inactive"}
{"gene knocked down": "CG4259", "dsRNA": "DRSC00645", "firefly reporter light, replicate 1": 2338, "firefly reporter light, replicate 2": 3994, "Renilla control light, replicate 1": 1213, "Renilla control light, replicate 2": 1984, "outcome": "inactive"}
{"gene knocked down": "SmD1 (Small ribonucleoprotein particle protein SmD1)", "dsRNA": "DRSC09800", "firefly reporter light, replicate 1": 6522, "Renilla control light, replicate 1": 2577, "outcome": "inactive"}
{"gene knocked down": "CG8578", "dsRNA": "DRSC20114", "firefly reporter light, replicate 1": 2353, "firefly reporter light, replicate 2": 4885, "Renilla control light, replicate 1": 822, "Renilla control light, replicate 2": 1446, "outcome": "inactive"}
{"gene knocked down": "Stam (Signal transducing adaptor molecule)", "dsRNA": "DRSC03444", "firefly reporter light, replicate 1": 6816, "Renilla control light, replicate 1": 2763, "outcome": "inactive"}
{"gene knocked down": "fabp + sea", "dsRNA": "DRSC16114", "firefly reporter light, replicate 1": 4038, "Renilla control light, replicate 1": 1751, "outcome": "inactive"}
{"gene knocked down": "fabp + sea", "dsRNA": "DRSC16115", "firefly reporter light, replicate 1": 11704, "Renilla control light, replicate 1": 2840, "outcome": "inactive"}
{"gene knocked down": "CG43116", "dsRNA": "DRSC13737", "firefly reporter light, replicate 1": 1660, "Renilla control light, replicate 1": 656, "outcome": "inactive"}
{"gene knocked down": "CG13021", "dsRNA": "DRSC17893", "firefly reporter light, replicate 1": 26475, "Renilla control light, replicate 1": 14706, "outcome": "inactive"}
{"gene knocked down": "Trs23 (TRAPP subunit 23)", "dsRNA": "DRSC03190", "firefly reporter light, replicate 1": 2485, "firefly reporter light, replicate 2": 4887, "Renilla control light, replicate 1": 925, "Renilla control light, replicate 2": 2810, "outcome": "inactive"}
{"gene knocked down": "CG11666", "dsRNA": "DRSC22379", "firefly reporter light, replicate 1": 5.64e5, "firefly reporter light, replicate 2": 7.36e5, "Renilla control light, replicate 1": 1.97e5, "Renilla control light, replicate 2": 2.71e5, "outcome": "inactive"}
{"gene knocked down": "az2", "dsRNA": "DRSC07580", "firefly reporter light, replicate 1": 9824, "Renilla control light, replicate 1": 3554, "outcome": "inactive"}
